About 6,100 (1.1%) of roughly 580,000 compounds were called active. This list was built around the results that the source calls inconclusive (neither active nor inactive); the mix of calls is not that of the screen. The call rests on the fitted dose curve; in most records, active means well fitted inhibition curve with a large enough effect; inconclusive means small, poorly fitted or top-dose-only effect, or another doubt; inactive means no such curve, though single readings can be large or run the other way. Potencies of inconclusive entries are doubtful fits and often do not repeat.
Target: Polyunsaturated fatty acid lipoxygenase ALOX12 (Homo sapiens) (UniProt P18054)
Experiment: Primary qHTS assay for inhibitors of human arachidonate 12S-lipoxygenase (ALOX12): Round 2
Details: purified 12hLO, xylenol orange hydroperoxide absorbance; series mostly up to 108 µM
Procedure, shortened: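 Hydroperoxide product was detected by ferrous iron/xylenol orange as the 573 to 405 nm absorbance ratio. Arachidonic acid at 40 uM (final) was turned over for 30 min at room temperature by 150 nM human 12hLO, pH 7.0 Hepes buffer, after 15 min compound preincubation.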
Potency means the concentration at half of the fitted maximal effect.

Amino acid sequences for entries named in this document (tags omitted). A change or cut given only in a name is not applied to a line headed by its entry.
UniProt P18054: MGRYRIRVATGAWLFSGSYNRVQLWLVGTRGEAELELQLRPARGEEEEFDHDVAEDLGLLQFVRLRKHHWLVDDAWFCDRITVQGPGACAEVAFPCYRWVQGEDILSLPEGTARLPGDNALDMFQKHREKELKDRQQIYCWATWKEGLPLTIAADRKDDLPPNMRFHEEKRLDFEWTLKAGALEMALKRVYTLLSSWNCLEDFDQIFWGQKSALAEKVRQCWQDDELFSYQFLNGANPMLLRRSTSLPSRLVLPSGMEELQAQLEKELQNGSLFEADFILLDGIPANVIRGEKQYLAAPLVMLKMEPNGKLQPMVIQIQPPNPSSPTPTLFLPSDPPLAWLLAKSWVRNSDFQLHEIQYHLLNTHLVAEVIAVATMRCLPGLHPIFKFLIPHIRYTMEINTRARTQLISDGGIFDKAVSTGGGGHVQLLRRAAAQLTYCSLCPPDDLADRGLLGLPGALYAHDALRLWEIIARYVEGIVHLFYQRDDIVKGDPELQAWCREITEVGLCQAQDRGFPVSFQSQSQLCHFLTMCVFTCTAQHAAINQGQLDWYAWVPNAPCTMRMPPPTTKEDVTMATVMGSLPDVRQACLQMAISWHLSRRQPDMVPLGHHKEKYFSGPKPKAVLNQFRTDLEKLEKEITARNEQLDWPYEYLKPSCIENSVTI

SMILES	Potency
Cc1cc(C)n(-c2nnc(C)n2/N=C/c2ccccc2O)n1	inactive
CC(C)N(Cc1ccccc1)C(=O)COC(=O)c1cc(S(=O)(=O)N(C)C)ccc1N1CCCC1	inactive
CCC(C)NS(=O)(=O)c1ccc(NC(=O)C2CCCO2)cc1 (stereo not given)	inconclusive: 126 µM [inhibitor, single point]
C/C=C/Cn1c(SC(C)CC)nc2c1c(=O)[nH]c(=O)n2C (stereo not given)	inconclusive: 50.1 µM [inhibitor, partial curve, poor fit]
COc1ccc(CN2CCc3oc(C)c(C(=O)NC(C)Cn4ccc(C)n4)c3C2)cc1 (stereo not given)	inconclusive: 10 µM [inhibitor, full curve]
COc1ccc(CN2CCNC(=O)C2CC(=O)N(C)Cc2nccs2)cc1OC (stereo not given)	inconclusive: 7.08 µM [inhibitor, partial curve, poor fit]
Cc1ccc(O)c(C(=O)/C=C/c2ccccc2Cl)c1	inactive
O=C(NCC(F)(F)F)c1cc2c(c(-c3cccc(-c4ccccc4F)c3)n1)[C@@H](CCO)N(C(=O)CC1CC1)C2	inconclusive: 112 µM [inhibitor, single point]
CCCCc1nc2ccn(CC(=O)N(C)C)c(=O)c2n1Cc1ccc(-c2ccccc2-c2nn[nH]n2)cc1	inconclusive: 2 µM [inhibitor, full curve, poor fit]
CC(C)Cc1nc2cccnc2n1C1CCN(S(=O)(=O)c2ccc3c(c2)CCCC3)CC1	inconclusive: 39.8 µM [inhibitor, partial curve, poor fit]
CCc1nc(N2CCN(CC(=O)NCC3CCCO3)CC2)c(C#N)c2c1COC(C)(C)C2 (stereo not given)	inconclusive: 1.78 µM [inhibitor, full curve, poor fit]
COc1ccc(CCNC(=O)C(=O)NCc2n[nH]c(=O)c3ccccc23)cc1OC	inconclusive: 56.2 µM [inhibitor, partial curve, poor fit]
NC(=O)COC(=O)c1cccnc1Nc1ccccc1F	inactive
Cc1cc(Cl)ccc1NC(=S)NC1CCCC1	inconclusive: 56.2 µM [inhibitor, partial curve, poor fit]
CCN1c2cc(C(=O)N3CCC(C(N)=O)CC3)ccc2C(=O)N2CCCCCC21 (stereo not given)	inactive
CC(=O)N(O)[C@@H]1c2cc(C#N)ccc2OC(C)(C)[C@H]1O	inconclusive: 35.5 µM [inhibitor, single point]
CNc1nc(SCc2ccc(C)cc2)nc2c1CCCC2	inconclusive: 89.1 µM [inhibitor, single point]
Cn1c(=O)c2c(nc(NCc3ccc4c(c3)OCO4)n2Cc2ccccc2F)n(C)c1=O	inconclusive: 7.08 µM [inhibitor, partial curve, poor fit]
Fc1ccc(CNC[C@H]2Cn3c(-c4ccc(F)cc4)cnc3CO2)cc1	inconclusive: 89.1 µM [inhibitor, partial curve]
CCCCCCCCN1C(=O)[C@@H](CC(=O)NCc2ccc(C)o2)C[C@@]2(C(=O)OC)C1=C[C@H](C(C)(C)C)O[C@@H]2C	inconclusive: 70.8 µM [inhibitor, partial curve, poor fit]
CC(=O)Nc1ccc(NC(=O)c2ccc3ccn(C)c3c2)cc1	inconclusive: 44.7 µM [inhibitor, partial curve, poor fit]
O=C(Nc1cccc(-c2cnc3ccccc3n2)c1)c1cccc(NC(=O)c2ccco2)c1	inactive

SMILES	Potency
Cc1ccc(CNC(=O)c2ccc(N3CCC4(CC3)CC(c3cccc(Br)c3)=NO4)c(N)c2)cc1	inconclusive: 22.4 µM [inhibitor, partial curve, poor fit]
COc1ccc(C)cc1NC(=O)c1oc2ccc(S(=O)(=O)N3CCCCC3)cc2c1C	inconclusive: 158 µM [inhibitor, partial curve, poor fit]
Cc1c(Cl)cccc1NC(=O)c1cnc(-c2ccccc2)nc1-c1ccncc1	inactive
COc1ccc(CCN2C(=O)CC(Sc3ncccc3C(=O)O)C2=O)cc1OC (stereo not given)	inconclusive: 5.62 µM [inhibitor, full curve, poor fit]
CC(=O)N1C[C@@H]2CCCN3CCC[C@@H]([C@H]23)[C@H]1CCCC(=O)NCc1ccc(C)o1	inactive
CCCS(=O)(=O)N1CCN(Cc2ccco2)CC1	inconclusive: 4.47 µM [inhibitor, full curve, poor fit]
CC(C)Sc1nc2ccccc2n1CC(=O)O	inconclusive: 100 µM [inhibitor, single point]
O=S(=O)(c1cc(F)cc(F)c1)N1CCCC(Cn2c(C3CC3)nc3cccnc32)C1 (stereo not given)	inconclusive: 89.1 µM [inhibitor, single point]
Cc1ccc(NC(=O)COc2coc(CN3CCc4ccccc4C3)cc2=O)cc1Cl	inconclusive: 79.4 µM [inhibitor, partial curve, poor fit]
Cc1ccc(NC(=O)C(C#N)=C2CCCCCCC2)cc1	inconclusive: 35.5 µM [inhibitor, single point]
O=C(CCN1C(=O)C2C3C=CC(C3)C2C1=O)N1CCN(c2cccc(Cl)c2)CC1 (stereo not given)	inactive
COc1ccc(C(=O)NNc2ccccc2)cc1	inactive
O=C1C(=O)N(CCN2CCOCC2)C(c2ccccc2Cl)/C1=C(\O)c1ccc(Cl)cc1 (stereo not given)	inconclusive: 0.0794 µM [inhibitor, full curve, poor fit]
CCN(CCC(F)(F)F)C(=O)c1cc2cccc([N+](=O)[O-])c2[nH]1	inconclusive: 89.1 µM [inhibitor, single point]
Cc1ccc(C(=O)/C=C/c2ccc(-c3ccccc3Cl)o2)cc1	active: 7.08 µM
O=C1NCCC[C@@H]1NC(=O)[C@H]1CN(C(=O)c2cccc(F)c2)CCN1S(=O)(=O)c1ccc(F)cc1	inconclusive: 28.2 µM [inhibitor, partial curve, poor fit]
O=C(NCc1nc2ccccc2[nH]1)C1=C[C@H](c2ccc3c(c2)OCO3)C[C@H](OCCCCO)O1	inconclusive: 79.4 µM [inhibitor, partial curve, poor fit]
O=C(NCC12CCC=C1N(Cc1ccccc1)C(=O)CC2)c1cccnc1 (stereo not given)	inactive
O=C(Cc1cccc2ccccc12)Nc1cc(Cl)ccc1C(=O)O	inconclusive: 44.7 µM [inhibitor, partial curve, poor fit]
C1=CC2CC1CC2CN1CCN(c2ccccc2)CC1 (stereo not given)	inconclusive: 2.24 µM [inhibitor, full curve, poor fit]
O=C(COC(=O)COc1ccccc1F)Nc1ncc(C(F)(F)F)cc1Cl	inconclusive: 15.8 µM [inhibitor, partial curve]
FC(F)(F)c1cc(Cl)c2nc(-c3ccccc3)c(Cc3ccccc3)n2c1	inconclusive: 8.91 µM [inhibitor, full curve, poor fit]

Some values from the list:
Cc1ccc(C(=O)/C=C/c2ccc(-c3ccccc3Cl)o2)cc1 – Potency: active: 7.08 µM
COc1ccc(CN2CCNC(=O)C2CC(=O)N(C)Cc2nccs2)cc1OC (stereo not given) – Potency: inconclusive: 7.08 µM [inhibitor, partial curve, poor fit]
O=C(NCC(F)(F)F)c1cc2c(c(-c3cccc(-c4ccccc4F)c3)n1)[C@@H](CCO)N(C(=O)CC1CC1)C2 – Potency: inconclusive: 112 µM [inhibitor, single point]

The list goes on.

SMILES	Potency
O=C(c1ccc(F)cc1Cl)N1CCN(c2cc(-c3ccc(F)cc3)[nH]n2)CC1	inactive
COc1cc(CN2CCCC3(Cc4ccccc4CNC3=O)C2)cc(OC)c1 (stereo not given)	inconclusive: 89.1 µM [inhibitor, partial curve]
CCc1cccc2c(C(=O)CSc3nnnn3C3CCCC3)c[nH]c12	inconclusive: 39.8 µM [inhibitor, partial curve, poor fit]
COc1cccc(CNC2CCCC2)c1	inconclusive: 1.78 µM [inhibitor, full curve, poor fit]
Cc1ccc(-c2cn3c(n2)CO[C@@H](CNCc2ccc(Cl)cc2)C3)cc1	active: 12.6 µM
CCOc1cc(C2NN=C(c3ccc(C)cc3)S2)ccc1O (stereo not given)	inconclusive: 44.7 µM [inhibitor, partial curve, poor fit]
Cc1ccc(S(=O)(=O)N2CCN(c3ncnc4scc(-c5ccc(F)cc5)c34)CC2)cc1	inactive
C/C(CC(C)(C)C1CCCCC1)=N\O	inactive
CCS(=O)(=O)N1Cc2ccccc2CC1C(=O)Nc1nnc(SCc2ccc(C#N)cc2)s1 (stereo not given)	inactive
O=C(O)c1ccc(Nc2nc(-c3cccnc3)cs2)cc1O	inconclusive: 8.91 µM [inhibitor, partial curve, poor fit]
O=S(=O)(NCCc1nnc2ccc(SCc3ccc(Cl)cc3Cl)nn12)c1ccccc1	inactive
Cc1nc(C)c(-c2ccn(S(=O)(=O)c3ccc(Cl)cc3)n2)o1	inconclusive: 100 µM [inhibitor, partial curve, poor fit]
COc1ccccc1C(c1nnnn1C(C)(C)C)N1CCN(Cc2ccncc2)CC1 (stereo not given)	inconclusive: 39.8 µM [inhibitor, partial curve, poor fit]
CCOc1cccc2cc(-c3nc(-c4nonc4N)no3)c(=O)oc12	inconclusive: 6.31 µM [inhibitor, full curve, poor fit]
CNC(=O)C1(N2CCC[C@H]2C(=O)N2CCOCC2)COC1	inactive
CC(C)c1cc(C(=O)O)c(O)c(C(C)C)c1	inconclusive: 39.8 µM [inhibitor, partial curve, poor fit]
COc1cccc(C(c2sc3nc(-c4ccco4)nn3c2O)N2CCC(O)CC2)c1 (stereo not given)	inactive
COC(=O)c1nc(NC(=O)C(C)C)n[nH]1	inactive
O=C(NNc1cc(Cl)ccc1Cl)C1CCC1	inconclusive: 112 µM [inhibitor, single point]
O=c1cnnc(Nc2ccc(F)cc2)[nH]1	inconclusive: 28.2 µM [inhibitor, single point]
CCOC(=O)c1cc2c(=O)n3ccccc3nc2n(Cc2ccco2)c1=NC(=O)c1cccnc1	inconclusive: 11.2 µM [inhibitor, full curve]

2 compounds drawn at random from those above:
SMILES	Potency
C/C(CC(C)(C)C1CCCCC1)=N\O	inactive
Cc1nc(C)c(-c2ccn(S(=O)(=O)c3ccc(Cl)cc3)n2)o1	inconclusive: 100 µM [inhibitor, partial curve, poor fit]

— PubChem BioAssay AID1671190 (National Center for Advancing Translational Sciences (NCATS), 2021)
